# For at least one compound, name, drawing or mass did not settle the structure.
# System: human umbilical vein endothelial cells (HUVECs)
# Assay: Tube formation assay of HUVEC on Matrigel
# Format: cell-based
# Conditions: 50 μM, FIGS. 6-9
# Description: In order to do the tube formation assay, blood vessel endothelial cells, human umbilical vein endothelial cells (HUVECs), were isolated from freshly obtained cords after cesarean section according to Grant's method (Grants D S, et al., Cell, 58, pp933-943, 1989). They were identified by immunocytochemial staining with anti-Factor VIII antibody. HUVECs grown with Matrigel (BD Bioscience, Bedford, Mass., USA), were treated with the above Horse chestnut extract of the Example 1, and further incubated at 37° C. for 8-16 hrs. As a control, above procedure was repeated without Horse chestnut extract.
# In order to identify the component responsible for anti-aniogenic acvity of Horse chestnut extract, components identified as in EXAMPLE 2, were subjected to the tube formation assay as described above. Since those chemicals are not soluble in water, they were dissolved in dimethyl sulfoxide (DMSO). In order to exclude the effect of solvent, HUVECs treated with the same amount of DMSO were used as a control. FIG. 5 is a picture of the 1% DMSO-treated HUVEC control, and FIGS. 6-9 are pictures showing the effect of individual components of the Horse chestnut on tube formation. […]
# The area of the tube was determined by image analysis program Image-Pro Plus® (Media Cybernetics, USA), and the results were summarized in Tables 1 and 2. […]
smiles,measurement,value
"C[C@@H]1O[C@@H](Oc2c(-c3ccc(O)c(O)c3)oc3cc(O)cc(O)c3c2=O)[C@H](O)[C@H](O)[C@H]1O [Quercitrin, quercitrin]",formation of microvascular network of HUVEC (pictures),disconnected

# Source: US9962331B2, “Composition containing horse chestnut extract” (priority 2001, dated 2018)
